# Results taken from paper PMC4814574.
# Amino acid sequences for entries named in this document (tags omitted).
# UniProt P49715, whole entry K298Q/K302Q: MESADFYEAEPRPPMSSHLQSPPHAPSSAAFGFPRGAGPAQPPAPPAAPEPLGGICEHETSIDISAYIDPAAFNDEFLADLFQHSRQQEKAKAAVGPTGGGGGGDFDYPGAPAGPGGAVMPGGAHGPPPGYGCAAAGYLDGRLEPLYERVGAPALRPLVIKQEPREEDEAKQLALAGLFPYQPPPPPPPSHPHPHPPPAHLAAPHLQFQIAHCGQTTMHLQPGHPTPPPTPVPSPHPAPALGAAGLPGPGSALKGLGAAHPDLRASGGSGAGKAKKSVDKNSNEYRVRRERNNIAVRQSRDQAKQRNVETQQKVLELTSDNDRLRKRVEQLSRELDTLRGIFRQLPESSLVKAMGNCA
# UniProt P49715, whole entry K298R/K302R: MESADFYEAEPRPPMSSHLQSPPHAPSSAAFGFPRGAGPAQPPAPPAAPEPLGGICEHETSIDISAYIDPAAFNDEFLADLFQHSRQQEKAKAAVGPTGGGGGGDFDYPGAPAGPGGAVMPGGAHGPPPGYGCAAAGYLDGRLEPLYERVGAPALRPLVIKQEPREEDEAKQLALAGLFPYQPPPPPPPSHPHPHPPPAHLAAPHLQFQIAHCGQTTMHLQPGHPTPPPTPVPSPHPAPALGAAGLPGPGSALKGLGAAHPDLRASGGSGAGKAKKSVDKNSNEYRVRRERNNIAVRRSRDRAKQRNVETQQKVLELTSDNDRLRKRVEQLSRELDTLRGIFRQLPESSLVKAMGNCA
# How the values were obtained:
# Experiment in all cases: EMSA supershift
# [1] = biological target: C/EBPα K2Q-ER K298Q,K302Q (human) (UniProt P49715); conditions: K562 cells treated with 5 uM β-estradiol 45 min; 10 mM HEPES-KOH pH 7.9, 50 mM KCl, 2.5 mM MgCl2, 1 mM DTT, 10% glycerol, 1 ug BSA, 0.5 ug poly(dI-dC), 25 ul, on ice 20 min; 6% gel, 0.5x TBE, 4 °C; protein in an extract; residues 1-358; protein details: C-terminal ER ligand-binding domain fusion
# [2] = biological target: C/EBPα K2R (no ER tag) K298R,K302R (human) (UniProt P49715); conditions: 0.1 and 0.5 ug nuclear extract; 10 mM HEPES-KOH pH 7.9, 50 mM KCl, 2.5 mM MgCl2, 1 mM DTT, 10% glycerol, 1 ug BSA, 0.5 ug poly(dI-dC), 25 ul, on ice 20 min; 6% gel, 0.5x TBE, 4 °C; protein in an extract; residues 1-358
# [3] = biological target: C/EBPα K2R-ER K298R,K302R (human) (UniProt P49715); conditions: K562 cells treated with 5 uM β-estradiol 45 min; 10 mM HEPES-KOH pH 7.9, 50 mM KCl, 2.5 mM MgCl2, 1 mM DTT, 10% glycerol, 1 ug BSA, 0.5 ug poly(dI-dC), 25 ul, on ice 20 min; 6% gel, 0.5x TBE, 4 °C; protein in an extract; residues 1-358; protein details: C-terminal ER ligand-binding domain fusion
# [4] = biological target: C/EBPα K2Q (no ER tag) K298Q,K302Q (human) (UniProt P49715); conditions: 0.1 and 0.5 ug nuclear extract, minimal binding (main text: loss of DNA binding); 10 mM HEPES-KOH pH 7.9, 50 mM KCl, 2.5 mM MgCl2, 1 mM DTT, 10% glycerol, 1 ug BSA, 0.5 ug poly(dI-dC), 25 ul, on ice 20 min; 6% gel, 0.5x TBE, 4 °C; protein in an extract; residues 1-358
sequence,measurement,setting,value
CTAGGGCTTGCGCAATCTATATTCG / CGAATATAGATTGCGCAAGCCCTA [G-CSF receptor promoter C/EBP site oligonucleotide],binding result,[1],binds more weakly
same,binding result,[2],binds
same,binding result,[3],binds
same,binding result,[4],binds more weakly

# Construct, isoform or probe ends are uncertain for at least one entry. Results from cells or extracts need not show a direct contact. For some of these results: Weaker means in comparison with the reference protein, sequence or condition of that experiment.
